In the supplement of paper PMC5770031:
Several values for one entry are separate records, joined by “and”; a condition that tells them apart may be missing. Equal entries are not always repeated. This is one part of the list. This data set is noisy: repeats of one test often differ as much as different tests do.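 Flies heterozygous for the ATM8 allele over a balancer chromosome carrying normal ATM were mated with each other on treated food. Parents laid eggs for 5–6 days and the young then developed for about 12 days, so both parents and larvae ate the compound. The read-out is the share of all emerged adults that carry two ATM8 copies, compared with 2% DMSO control vials. The paper called compounds neutral at 10–20% such offspring, harmful below 10%, and helpful above 20%.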

system: Drosophila melanogaster ATM8 (temperature-sensitive ATM allele); experiment: fraction of eclosed F1 progeny that are homozygous ATM8 (rescue of developmental lethality); higher = more rescue of ATM8 developmental lethality; extreme values may be limits of the assay; conditions: compound concentration applied to food 0.2 mM; 21 °C

Structure (SMILES)	fraction of eclosed F1 progeny that are homozygous ATM8
CC(=O)Oc1cc2c(c(C)c1OC(C)=O)CC=C1[C@@]2(C)CC[C@@]2(C)C3C[C@](C)(C(=O)O)CC[C@]3(C)CC[C@]12C (some centres undefined)	0.212
O=c1c(O)c(-c2ccc(O)cc2)oc2ccccc12	0.196
CCCCNc1cc(C(=O)O)cc(S(N)(=O)=O)c1Oc1ccccc1	0.138
C[C@H](Cn1cnc2c(N)ncnc21)OCP(=O)(O)O	0.17
CC(=O)Oc1ccccc1C(=O)Oc1ccccc1C(=O)O	0.156
NCCCC(O)(P(=O)(O)O)P(=O)(O)O	0.125
O=C(O)CN(CC(=O)O)Cc1cc2c(cc1O)Oc1cc(O)c(CN(CC(=O)O)CC(=O)O)cc1C21OC(=O)c2ccccc21	0.0909
NC(=O)c1ccc(N)nc1	0.129
N[C@@H](Cc1ccc(N(CCCl)CCCl)cc1)C(=O)O	0.156
CC1=CC(=O)c2c(O)cccc2C1=O	0.098
CCCCC/C=C/CCC(=O)N[C@H]1[C@H](Oc2c3cc4cc2Oc2ccc(cc2Cl)[C@@H](O[C@@H]2O[C@H](CO)[C@@H](O)[C@H](O)[C@H]2NC(C)=O)[C@@H]2NC(=O)[C@H](NC(=O)[C@@H]4NC(=O)[C@H]4NC(=O)C(Cc5ccc(c(Cl)c5)O3)NC(=O)[C@H](N)c3ccc(O)c(c3)Oc3cc(O)cc4c3)c3ccc(O)c(c3)-c3c(OC4O[C@H](CO)[C@@H](O)[C@H](O)[C@@H]4O)cc(O)cc3[C@@H](C(=O)O)NC2=O)O[C@H](CO)[C@@H](O)[C@@H]1O (some centres undefined) [TEICOPLANIN [A(2-1) shown]]	0.0435
COc1ccc(C[C@H](N)C(=O)N[C@H]2[C@@H](O)[C@H](n3cnc4c(N(C)C)ncnc43)O[C@@H]2CO)cc1	0.167
[O-][n+]1cccc(CO)c1	0.185
Cc1ccnc(NS(=O)(=O)c2ccc(N)cc2)n1	0.154
NCCNCCNCCN	0
O=C1CN=C(c2ccccc2Cl)c2cc([N+](=O)[O-])ccc2N1	0.191
O=C(CCc1ccc(O)cc1)c1c(O)cc(O)cc1O[C@@H]1OC(CO)[C@@H](O)[C@@H](O)C1O (some centres undefined)	0.25
CCCCCNC(=N)N/N=C/c1c[nH]c2ccc(OC)cc12	0.178
O=C(O)c1ccc(S(=O)(=O)N(Cl)Cl)cc1	0.0952
O=C(Oc1ccccc1C(=O)O)c1ccccc1O	0.375
COc1c(C)c2c(c(O)c1C/C=C(\C)CCC(=O)O)C(=O)OC2	0.219

Structure (SMILES)	fraction of eclosed F1 progeny that are homozygous ATM8
CC(C)c1ccc2c(c1)CC[C@H]1[C@](C)(CN)CCC[C@]21C	0.231
C[C@H]1O[C@H](O[C@H]2[C@H](O)[C@@H](O)[C@@H](O)[C@H](O)[C@@H]2O)[C@@H](N)C[C@@H]1NC(=N)C(=O)O	0.0682
Nc1ccc(C(=O)O)cc1	0.129
CCN1CCCC(OC(=O)C(c2ccccc2)c2ccccc2)C1 (centres undefined)	0.08
C[C@H]1O[C@@H](n2cc(F)c(=O)[nH]c2=O)[C@H](O)[C@@H]1O	0.163
CN(C/C=C/c1ccccc1)Cc1cccc2ccccc12	0.0857
C=C1[C@@H]([C@@]2(C)C=CC(=O)C(C)(C)[C@@H]2CC(=O)OC)CC[C@@]2(C)[C@H](c3ccoc3)OC(=O)[C@H]3O[C@]132	0.0851
CC(=O)CCCCn1c(=O)c2c(ncn2C)n(C)c1=O	0.143
CN1C(=O)OC(C)(C)C1=O	0.0256
C[C@@H]1CC[C@@]2(OC1)O[C@H]1C[C@H]3[C@@H]4CC[C@H]5C[C@@H](O)CC[C@]5(C)[C@H]4CC(=O)[C@]3(C)[C@H]1[C@@H]2C	0.179
CC1(C)O[C@@H]2C[C@H]3[C@@H]4CCC5=CC(=O)CC[C@]5(C)[C@@]4(F)[C@@H](O)C[C@]3(C)[C@]2(C(=O)CCl)O1	0.0531
C[C@]12C=CC(=O)C=C1CC[C@H]1[C@@H]3C[C@@H](O)[C@](O)(C(=O)CO)[C@@]3(C)C[C@H](O)[C@@]12F	0.152
Cc1ccc(-c2nc3ccc(C)cn3c2CC(=O)N(C)C)cc1	0.283
C[C@@H]1O[C@@H](OC[C@H]2O[C@@H](Oc3c(-c4ccc(OCCO)c(OCCO)c4)oc4cc(OCCO)cc(O)c4c3=O)[C@H](O)[C@@H](O)[C@@H]2O)[C@H](O)[C@H](O)[C@H]1O	0.0652
CCN(CC)C(=O)/C(C#N)=C/c1cc(O)c(O)c([N+](=O)[O-])c1	0.107
C[C@@H](O)[C@H]1C(=O)N2C(C(=O)O)=C(S[C@@H]3CN[C@H](C(=O)N(C)C)C3)[C@H](C)[C@H]12	0.0377
CC(=O)O[C@H]1C[C@@H]2CC[C@@H]3[C@H](CC[C@@]4(C)[C@H]3C[C@H]([N+]3(C)CCCCC3)[C@@H]4OC(C)=O)[C@@]2(C)C[C@@H]1N1CCCCC1	0.0612
CN1[C@@H]2CC[C@H]1C[C@@H](OC(=O)[C@H](CO)c1ccccc1)C2	0.13
Cc1cc(C)cc(OCC2CNC(=O)O2)c1 (centres undefined)	0.0714
COc1ccc(C(=O)O)c(O)c1OC	0.306
O=C(O)[C@H](O)[C@@H](O)[C@H](O[C@@H]1O[C@H](CO)[C@H](O)[C@H](O)[C@H]1O)[C@H](O)CO	0.0303

Structure (SMILES)	fraction of eclosed F1 progeny that are homozygous ATM8
CCCCCC(=O)O[C@]1(C(C)=O)CC[C@H]2[C@@H]3CCC4=CC(=O)CC[C@]4(C)[C@H]3CC[C@@]21C	0.263
O=C(O[C@@H]1Cc2c(O)cc(O)cc2O[C@@H]1c1ccc(O)c(O)c1)c1cc(O)c(O)c(O)c1	0.0597
OC(c1cc(C(F)(F)F)nc2c(C(F)(F)F)cccc12)C1CCCCN1 (centres undefined)	0.149
Cc1coc2c1C(=O)C(=O)c1c-2ccc2c1CCCC2(C)C	0.183
CC[C@H]1OC(=O)C[C@@H](O)[C@H](C)[C@@H](O[C@@H]2O[C@H](C)[C@@H](O)[C@H](N(C)C)[C@H]2O)[C@@H](CCN2C[C@H](C)C[C@H](C)C2)C[C@@H](C)C(=O)/C=C/C(C)=C/[C@@H]1CO[C@@H]1O[C@H](C)[C@@H](O)[C@@H](OC)[C@H]1OC	0.1
CNCCCC12CCC(c3ccccc31)c1ccccc12	0.0513
C=C(C)[C@@H]1CC[C@]2(CO)CC[C@]3(C)[C@H](CC[C@@H]4[C@@]5(C)CC[C@H](O)C(C)(C)[C@@H]5CC[C@]43C)[C@@H]12	0.24
CCCN(CCC)CCc1cccc2c1CC(=O)N2	0.196
O[C@H]1[C@H](O)[C@@H](O)[C@H](O)[C@@H](O)[C@H]1O	0.108
COc1ccc2c(c1)CC[C@@H]1[C@@H]2CC[C@]2(C)[C@@H](O)CC[C@@H]12	0.087
COc1cccc2c1C(=O)c1c(O)c3c(c(O)c1C2=O)C[C@@](O)(C(=O)CO)C[C@@H]3O[C@H]1C[C@H](N)[C@@H](O)[C@H](C)O1	0.0649
CC(=O)O[C@H]1C(=O)[C@@]2(C)[C@H]([C@H](OC(=O)c3ccccc3)[C@]3(O)C[C@H](OC(=O)[C@H](O)[C@@H](NC(=O)c4ccccc4)c4ccccc4)C(C)=C1C3(C)C)[C@]1(OC(C)=O)CO[C@@H]1C[C@@H]2O	0.0667
CNNC	0.181
CC(=O)c1ccc[nH]1	0.22
NC(=O)c1cnccn1	0.1
CC(C)(C)CC(C)(C)c1cc(Cc2cc(C(C)(C)CC(C)(C)C)cc(-n3nc4ccccc4n3)c2O)c(O)c(-n2nc3ccccc3n2)c1	0.13
CSc1nc2cc(Cl)c(Oc3cccc(Cl)c3Cl)cc2[nH]1	0.231
Cc1nc2ccccn2c(=O)c1CCN1CCC(C(=O)c2ccc(F)cc2)CC1	0.0469
O=C(CCNNC(=O)c1ccncc1)NCc1ccccc1	0.167
CCCn1c(=O)c2[nH]c(C3CCCC3)nc2n(CCC)c1=O	0.0294
O=C(/C=C/c1ccccc1)c1ccc(O[C@@H]2O[C@H](CO)[C@@H](O)[C@H](O)[C@H]2O)cc1O	0.0976

Structures listed so far that have nitrogen in an aromatic ring (17):
Structure (SMILES)	fraction of eclosed F1 progeny that are homozygous ATM8
C[C@H](Cn1cnc2c(N)ncnc21)OCP(=O)(O)O	0.17
NC(=O)c1ccc(N)nc1	0.129
COc1ccc(C[C@H](N)C(=O)N[C@H]2[C@@H](O)[C@H](n3cnc4c(N(C)C)ncnc43)O[C@@H]2CO)cc1	0.167
[O-][n+]1cccc(CO)c1	0.185
Cc1ccnc(NS(=O)(=O)c2ccc(N)cc2)n1	0.154
CCCCCNC(=N)N/N=C/c1c[nH]c2ccc(OC)cc12	0.178
C[C@H]1O[C@@H](n2cc(F)c(=O)[nH]c2=O)[C@H](O)[C@@H]1O	0.163
CC(=O)CCCCn1c(=O)c2c(ncn2C)n(C)c1=O	0.143
Cc1ccc(-c2nc3ccc(C)cn3c2CC(=O)N(C)C)cc1	0.283
OC(c1cc(C(F)(F)F)nc2c(C(F)(F)F)cccc12)C1CCCCN1 (centres undefined)	0.149
CC(=O)c1ccc[nH]1	0.22
NC(=O)c1cnccn1	0.1
CC(C)(C)CC(C)(C)c1cc(Cc2cc(C(C)(C)CC(C)(C)C)cc(-n3nc4ccccc4n3)c2O)c(O)c(-n2nc3ccccc3n2)c1	0.13
CSc1nc2cc(Cl)c(Oc3cccc(Cl)c3Cl)cc2[nH]1	0.231
Cc1nc2ccccn2c(=O)c1CCN1CCC(C(=O)c2ccc(F)cc2)CC1	0.0469
O=C(CCNNC(=O)c1ccncc1)NCc1ccccc1	0.167
CCCn1c(=O)c2[nH]c(C3CCCC3)nc2n(CCC)c1=O	0.0294

Quoted from the listing, 2 compounds:
Structure (SMILES)	fraction of eclosed F1 progeny that are homozygous ATM8
NCCCC(O)(P(=O)(O)O)P(=O)(O)O	0.125
O=C(O)CN(CC(=O)O)Cc1cc2c(cc1O)Oc1cc(O)c(CN(CC(=O)O)CC(=O)O)cc1C21OC(=O)c2ccccc21	0.0909

(further entries)

Structure (SMILES)	fraction of eclosed F1 progeny that are homozygous ATM8
CC1/C(=N/O)C[C@@H]2C[C@H]1C2(C)C (some centres undefined)	0.0606
O=C(O)c1cc(=O)[nH]c(=O)[nH]1	0.143
O=c1n(CCCN2CCN(c3cccc(Cl)c3)CC2)nc2ccccn12	0.0698
CC(=O)NCCCCCC(=O)O	0.0833
COc1ccc2c(c1)[C@]13CCCC[C@@H]1[C@H](C2)N(C)CC3	0.0667
COc1ccc([C@@H](C)C(=O)c2ccc(O)cc2O)cc1	0.304
C=C[C@H]1CN2CC[C@H]1C[C@H]2[C@H](O)c1ccnc2ccccc12	0.0612
C/C=C(/C(=C/C)c1ccc(O)cc1)c1ccc(O)cc1	0.0312
O=C(O)c1ccccc1OP(=O)(O)O	0.0784
COC(=O)c1c(C)cc(OC(=O)c2c(C)cc(O)c(C=O)c2O)c(C)c1O	0.289
C[C@H]1O[C@@H](O[C@H]2[C@@H](O)C[C@H](O[C@H]3[C@@H](O)C[C@H](O[C@H]4CC[C@@]5(C)[C@H](CC[C@@H]6[C@@H]5CC[C@]5(C)[C@@H](C7=CC(=O)OC7)[C@@H](O)C[C@]65O)C4)O[C@@H]3C)O[C@@H]2C)C[C@H](O)[C@@H]1O	0.387
CC1=C(/C=C/C(C)=C/C=C/C(C)=C/CO)C(C)(C)CCC1	0.22
C[C@]12CCC(=O)C=C1[C@@H]1C[C@@H]1[C@H]1[C@@H]3[C@@H]4C[C@@H]4[C@@]4(CCC(=O)O4)[C@@]3(C)CC[C@@H]12	0.104
CC1=NCCc2c1[nH]c1cc(O)ccc21	0.25 and 0.18
C/C(=C\C(=O)OCCCCCCCCC(=O)O)C[C@@H]1OC[C@H](C[C@@H]2O[C@H]2[C@@H](C)[C@H](C)O)[C@@H](O)[C@H]1O	0.0294
CN/C(=N\CCSCc1nc[nH]c1C)NC#N	0.167
N[C@@H](CSCSC[C@H](N)C(=O)O)C(=O)O	0.0217
O=C(O)c1cc(/N=N/c2ccc(S(=O)(=O)Nc3ccccn3)cc2)ccc1O	0.0465
CCOc1ccc2nc(S(N)(=O)=O)sc2c1	0.0303
c1coc(CNc2ncnc3[nH]cnc23)c1	0.244
C[C@@H]1C[C@H]2[C@@H]3CCC4=CC(=O)C=C[C@]4(C)[C@@]3(Cl)[C@@H](O)C[C@]2(C)[C@@]1(OC(=O)c1ccco1)C(=O)CCl	0.333
